{"source": "the supplement of paper PMC8728848", "test_in_all_cases": "glycan array binding signal (z-score within array); higher = stronger binding", "conditions_in_all_cases": "glycan notation: IUPAC condensed, linker removed", "key": {"[1]": {"biological_target": "Fuc(a1-2)Gal", "how_it_was_run": "(§1)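 Negative Z-scores can be read as non-binding. The Z-score is calculated within each array and then averaged across arrays of one protein sequence at different concentrations or buffers and across linkers. Arrays, 3228 in all, were curated from the Consortium for Functional Glycomics database and kept only where the protein sequence was available.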"}, "[2]": {"biological_target": "Fuc(a1-2)Gal(b1-3)GalNAc", "how_it_was_run": "as §1"}, "[3]": {"biological_target": "Fuc(a1-2)Gal(b1-3)GalNAc(a1-3)[Fuc(a1-2)]Gal(b1-4)Glc", "how_it_was_run": "as §1"}, "[4]": {"biological_target": "Fuc(a1-2)Gal(b1-3)GalNAc(a1-3)[Fuc(a1-2)]Gal(b1-4)GlcNAc", "how_it_was_run": "as §1"}, "[5]": {"biological_target": "Fuc(a1-2)Gal(b1-3)GalNAc(b1-3)Gal", "how_it_was_run": "as §1"}, "[6]": {"biological_target": "Fuc(a1-2)Gal(b1-3)GalNAc(b1-3)Gal(a1-4)Gal(b1-4)Glc", "how_it_was_run": "as §1"}, "[7]": {"biological_target": "Fuc(a1-2)Gal(b1-3)GalNAc(b1-4)[Neu5Ac(a2-3)]Gal(b1-4)Glc", "how_it_was_run": "as §1"}, "[8]": {"biological_target": "Fuc(a1-2)Gal(b1-3)GlcNAc", "how_it_was_run": "as §1"}, "[9]": {"biological_target": "Fuc(a1-2)Gal(b1-3)GlcNAc(b1-2)Man(a1-3)[Fuc(a1-2)Gal(b1-3)GlcNAc(b1-2)Man(a1-6)]Man(b1-4)GlcNAc(b1-4)GlcNAc", "how_it_was_run": "as §1"}, "[10]": {"biological_target": "Fuc(a1-2)Gal(b1-3)GlcNAc(b1-2)Man(a1-3)[Fuc(a1-2)Gal(b1-3)GlcNAc(b1-2)Man(a1-6)]Man(b1-4)GlcNAc(b1-4)[Fuc(a1-6)]GlcNAc", "how_it_was_run": "as §1"}, "[11]": {"biological_target": "Fuc(a1-2)Gal(b1-3)GlcNAc(b1-3)Gal(b1-4)Glc", "how_it_was_run": "as §1"}, "[12]": {"biological_target": "Fuc(a1-2)Gal(b1-3)GlcNAc(b1-3)GalNAc", "how_it_was_run": "as §1"}, "[13]": {"biological_target": "Fuc(a1-2)Gal(b1-3)GlcNAc(b1-3)[Fuc(a1-2)Gal(b1-3)GlcNAc(b1-6)]GalNAc", "how_it_was_run": "as §1"}, "[14]": {"biological_target": "Fuc(a1-2)Gal(b1-3)GlcNAc(b1-3)[Gal(b1-4)GlcNAc(b1-6)]Gal(b1-4)Glc", "how_it_was_run": "as §1"}, "[15]": {"biological_target": "Fuc(a1-2)Gal(b1-3)GlcNAc(b1-3)[Neu5Ac(a2-6)Gal(b1-4)GlcNAc(b1-6)]Gal(b1-4)Glc", "how_it_was_run": "as §1"}, "[16]": {"biological_target": "Fuc(a1-2)Gal(b1-3)GlcNAc6S", "how_it_was_run": "as §1"}, "[17]": {"biological_target": "Fuc(a1-2)Gal(b1-3)[Fuc(a1-4)]GlcNAc", "how_it_was_run": "as §1"}, "[18]": {"biological_target": "Fuc(a1-2)Gal(b1-3)[Fuc(a1-4)]GlcNAc(b1-2)Man(a1-3)[Fuc(a1-2)Gal(b1-3)[Fuc(a1-4)]GlcNAc(b1-2)Man(a1-3)]Man(b1-4)GlcNAc(b1-4)GlcNAc", "how_it_was_run": "as §1"}, "[19]": {"biological_target": "Fuc(a1-2)Gal(b1-3)[Fuc(a1-4)]GlcNAc(b1-2)Man(a1-3)[Fuc(a1-2)Gal(b1-3)[Fuc(a1-4)]GlcNAc(b1-2)Man(a1-6)]Man(b1-4)GlcNAc(b1-4)[Fuc(a1-6)]GlcNAc(b1-4)[Fuc(a1-6)]GlcNAc", "how_it_was_run": "as §1"}, "[20]": {"biological_target": "Fuc(a1-2)Gal(b1-3)[Fuc(a1-4)]GlcNAc(b1-3)[Fuc(a1-3)[Gal(b1-4)]GlcNAc(b1-6)]Gal(b1-4)Glc", "how_it_was_run": "as §1"}, "[21]": {"biological_target": "Fuc(a1-2)Gal(b1-3)[Fuc(a1-4)]GlcNAc(b1-3)[Gal(b1-4)GlcNAc(b1-6)]Gal(b1-4)Glc", "how_it_was_run": "as §1"}, "[22]": {"biological_target": "Fuc(a1-2)Gal(b1-4)Glc", "how_it_was_run": "as §1"}, "[23]": {"biological_target": "Fuc(a1-2)Gal(b1-4)Glc6S", "how_it_was_run": "as §1"}, "[24]": {"biological_target": "Fuc(a1-2)Gal(b1-4)GlcNAc", "how_it_was_run": "as §1"}, "[25]": {"biological_target": "Fuc(a1-2)Gal(b1-4)GlcNAc(b1-2)Man", "how_it_was_run": "as §1"}, "[26]": {"biological_target": "Fuc(a1-2)Gal(b1-4)GlcNAc(b1-2)Man(a1-3)[Fuc(a1-2)Gal(b1-4)GlcNAc(b1-2)Man(a1-6)]Man(b1-4)GlcNAc(b1-4)GlcNAc", "how_it_was_run": "as §1"}, "[27]": {"biological_target": "Fuc(a1-2)Gal(b1-4)GlcNAc(b1-2)Man(a1-3)[Fuc(a1-2)Gal(b1-4)GlcNAc(b1-2)Man(a1-6)]Man(b1-4)GlcNAc(b1-4)[Fuc(a1-6)]GlcNAc", "how_it_was_run": "as §1"}, "[28]": {"biological_target": "Fuc(a1-2)Gal(b1-4)GlcNAc(b1-2)[Fuc(a1-2)Gal(b1-4)GlcNAc(b1-4)]Man(a1-3)[Fuc(a1-2)Gal(b1-4)GlcNAc(b1-2)Man(a1-6)]Man(b1-4)GlcNAc(b1-4)GlcNAc", "how_it_was_run": "as §1"}, "[29]": {"biological_target": "Fuc(a1-2)Gal(b1-4)GlcNAc(b1-3)Gal(b1-4)GlcNAc", "how_it_was_run": "as §1"}, "[30]": {"biological_target": "Fuc(a1-2)Gal(b1-4)GlcNAc(b1-3)Gal(b1-4)GlcNAc(b1-2)Man(a1-3)[Fuc(a1-2)Gal(b1-4)GlcNAc(b1-3)Gal(b1-4)GlcNAc(b1-2)Man(a1-6)]Man(b1-4)GlcNAc(b1-4)GlcNAc", "how_it_was_run": "as §1"}}, "note": "The list shows a part of the results."}
{"binder": "SJCP3842 (Schistosoma japonicum) (protein) MFKMRIINLVNISTVLLLINLLQTKSRLVGKENGFMLTVSIYGAQLSDKMTSVPVSWTIDYEDPEKSAFKKLVTDSCDTFSEYVKSQIPKGSVDGQCTSHIFQRPGSGSGVSISLTLSFIYVDVTQPDTVALKTELEKHFANFVTIHSHKITQAQFRINQKAIVIPTGDKDAIDGSKWKIIAIIALVALAIVVIGGFIYICVK", "values": [{"measurement": "glycan array binding signal (z-score)", "setting": "[1]", "value": 0.195}, {"measurement": "glycan array binding signal (z-score)", "setting": "[2]", "value": -0.559}, {"measurement": "glycan array binding signal (z-score)", "setting": "[3]", "value": -1.25}, {"measurement": "glycan array binding signal (z-score)", "setting": "[4]", "value": -0.925}, {"measurement": "glycan array binding signal (z-score)", "setting": "[5]", "value": 1.77}, {"measurement": "glycan array binding signal (z-score)", "setting": "[6]", "value": 1.17}, {"measurement": "glycan array binding signal (z-score)", "setting": "[7]", "value": 0.207}, {"measurement": "glycan array binding signal (z-score)", "setting": "[8]", "value": -0.114}, {"measurement": "glycan array binding signal (z-score)", "setting": "[9]", "value": 0.876}, {"measurement": "glycan array binding signal (z-score)", "setting": "[10]", "value": 0.431}, {"measurement": "glycan array binding signal (z-score)", "setting": "[11]", "value": -1.06}, {"measurement": "glycan array binding signal (z-score)", "setting": "[12]", "value": -0.677}, {"measurement": "glycan array binding signal (z-score)", "setting": "[13]", "value": -0.394}, {"measurement": "glycan array binding signal (z-score)", "setting": "[14]", "value": -0.268}, {"measurement": "glycan array binding signal (z-score)", "setting": "[15]", "value": -1.58}, {"measurement": "glycan array binding signal (z-score)", "setting": "[16]", "value": -0.268}, {"measurement": "glycan array binding signal (z-score)", "setting": "[17]", "value": -0.541}, {"measurement": "glycan array binding signal (z-score)", "setting": "[18]", "value": -0.356}, {"measurement": "glycan array binding signal (z-score)", "setting": "[19]", "value": 1.16}, {"measurement": "glycan array binding signal (z-score)", "setting": "[20]", "value": -0.293}, {"measurement": "glycan array binding signal (z-score)", "setting": "[21]", "value": 0.016}, {"measurement": "glycan array binding signal (z-score)", "setting": "[22]", "value": 0.474}, {"measurement": "glycan array binding signal (z-score)", "setting": "[23]", "value": -0.306}, {"measurement": "glycan array binding signal (z-score)", "setting": "[24]", "value": -0.756}, {"measurement": "glycan array binding signal (z-score)", "setting": "[25]", "value": -1.49}, {"measurement": "glycan array binding signal (z-score)", "setting": "[26]", "value": -0.756}, {"measurement": "glycan array binding signal (z-score)", "setting": "[27]", "value": 0.188}, {"measurement": "glycan array binding signal (z-score)", "setting": "[28]", "value": 2.03}, {"measurement": "glycan array binding signal (z-score)", "setting": "[29]", "value": -0.763}, {"measurement": "glycan array binding signal (z-score)", "setting": "[30]", "value": 0.382}]}
